From the supplement of paper PMC4862054
Most entries show no effect beyond the scatter of the controls.

Columns and labels:
Experiment in all cases: normalised response (% of control), CellTox Green; higher = less cell death (100 = DMSO, 0 = benzethonium chloride kill control)
Conditions in all cases: incubation time: 72 h
[1] = test system: HCC1143
Description: (§1)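 DSRT, 72 h incubation, CellTox Green / CellTiter-Glo readout. Signal is normalised to DMSO and benzethonium chloride controls. Value is the normalised response at dose 2.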

[2] = test system: BT-474
Description: as §1

[3] = test system: CAL-85-1
Description: as §1

[4] = test system: HCC1599
Description: as §1

[5] = test system: MDA-MB-468
Description: as §1

[6] = test system: DU-4475
Description: as §1

[7] = test system: MDA-MB-453
Description: as §1

[8] = test system: HDQ-P1
Description: as §1

[9] = test system: MCF-10A
Description: as §1

[10] = test system: HCC1937
Description: as §1

[11] = test system: MDA-MB-436
Description: as §1

[12] = test system: MDA-MB-231
Description: as §1

[13] = test system: MFM-223
Description: as §1

[14] = test system: CAL-120
Description: as §1

[15] = test system: CAL-148
Description: as §1

[16] = test system: BT-549
Description: as §1

[17] = test system: Hs578T
Description: as §1

[18] = test system: CAL-51
Description: as §1

SMILES | normalised response [1] | normalised response [2] | normalised response [3] | normalised response [4] | normalised response [5] | normalised response [6] | normalised response [7] | normalised response [8] | normalised response [9] | normalised response [10] | normalised response [11] | normalised response [12] | normalised response [13] | normalised response [14] | normalised response [15] | normalised response [16] | normalised response [17] | normalised response [18]
CC(=O)O[C@@]12CO[C@@H]1C[C@H](O)[C@@]1(C)C(=O)[C@H](O)C3=C(C)[C@@H](OC(=O)[C@H](O)[C@@H](NC(=O)OC(C)(C)C)c4ccccc4)C[C@@](O)([C@@H](OC(=O)c4ccccc4)[C@H]21)C3(C)C [Docetaxel] (1 nM) | 101% | 98.8% | 83.7% | 95.8% | 56.2% | 94.3% | 52.4% | 112% | 77.5% | 85.4% | 76.3% | 77.6% | 89.9% | 98.1% | 92.7% | 98% | 107% | 84.2%
S=c1[nH]cnc2nc[nH]c12 [Mercaptopurine] (10 nM) | 97.8% | 102% | 103% | 96.2% | 125% | 92.7% | 97.2% | 95.3% | 94.9% | 113% | 101% | 57.2% | 96.1% | 90% | 102% | 99.3% | 106% | 101%
Cc1c(CN2CCN(C(=O)[C@H](C)O)CC2)sc2c(N3CCOCC3)nc(-c3cnc(N)nc3)nc12 [GDC-0980] (10 nM) | 76% | 96.9% | 96.3% | 118% | 87.7% | 111% | 108% | 92.8% | 106% | 86.9% | 90.7% | 92.5% | 101% | 105% | 104% | 95.3% | 91.8% | 97.6%
CCn1c(C(=O)N(C2CC2)C2CC2)cc2c3c(ncn3C)c(Nc3cc(C)n(C)n3)nc21 (10 nM) | 95.4% | 103% | 102% | 101% | 109% | 94.1% | 66.8% | 120% | 65.7% | 116% | 70.5% | 106% | 105% | 97.6% | 107% | 98.8% | 122% | 96.8%
Nc1ccccc1NC(=O)c1ccc(CNC(=O)OCc2cccnc2)cc1 [Entinostat] (10 nM) | 105% | 97.6% | 96.5% | 92.3% | 103% | 101% | 99.7% | 105% | 95.6% | 112% | 102% | 99.1% | 103% | 100% | 104% | 106% | 88.8% | 99.8%
CCCC(CCC)C(=O)O [Valproic acid] (1000 nM) | 100% | 105% | 110% | 125% | 115% | 99.8% | 78.5% | 88% | 107% | 115% | 66.3% | 113% | 99.5% | 103% | 110% | 108% | 126% | 88.9%
COCC[n+]1c2c(n(Cc3cnccn3)c1C)C(=O)c1ccccc1C2=O [YM155] (10 nM) | 40.5% | 83.5% | 11.1% | 93.5% | 50.6% | 103% | 99.2% | 109% | 60.9% | 71.6% | 89.3% | 76.2% | 99.5% | 26.4% | 83.7% | 104% | 119% | 83.7%
